US20210403546A1

How the values were obtained:
[1] = target: TGF-β1 (species not stated for this assay) (Homo sapiens (Human)); test: SPR (Biacore T200), Fab over amine-coupled TGF-β1
[2] = target: TGF-β1 (species not stated for this assay) (Homo sapiens (Human)); test: ELISA on plate-coated TGFβ1; positive control
[3] = target: TGF-β1 (species not stated for this assay) (Homo sapiens (Human)); test: ELISA on immobilized TGFβ1; positive control

binding [1]: binds
B1: 13A1_2B Fab (LCR13A1_VH_GLv1_03_LCR13A1_VK_GLv3, stable Fab) (Fab, V domains shown)
VH: QVQLVQSGSVLAKPGASVKVSCKASGYTFTNYWMHWVRQAPGQGLEWIGTIYPGNSDTNYNQKFKDRAKLTAVTSTSTVYMELSSLRSEDTAVYYCTREDSRSLYYNGWDYFDYWGQGTLVTVSS
VL: DIVMTQSPDSLAVSLGERATINCKSSESVDNYGISFLNWFQQKPGKAPKLLIYAASNQGSGVPDRFSGSGSGTDFTLTISSLQAEDVAVYFCQQSKEVPRTFGGGTKLEIK

binding [1]: binds
B2: 13A1_2F Fab (LCR13A1_VK_GLv1_05 + LCR13A1_VH_GLv1_03, stable Fab) (Fab, V domains shown)
VH: B1 VH
VL: DIVMTQSPDSLAVSLGERATISCRASESVDNYGISFLNWFQQKPGQPPKLLIYAASNQGSGVPSRFSGSGSGTDFTLNIHPLEAEDAATYYCQQSKEVPRTFGGGTKVEIK

binding [2]: binds
binding [3]: binds
B3: LCR13A1_VH_GLv1_03_LCR13A1_VK_GLv1_05 (LCR13A1-2F) IgG4[S228P] (antibody, V domains shown)
VH: B1 VH
VL: DIVMTQSPDSLAVSLGERATISCRASESVDNYGISFLNWFQQKPGQPPKLLIYAASNQGSGVPSRFSGSGSGTDFTLNIHPLEAEDAATYYCQQSKEVPRTFGGGTKVEIKR

Results are given in words; binding and its absence hold for the method and conditions named. Binding can be weak; no strength is given. Each block holds one binder with its values, some of them ahead of it.
